MtTrpRS: 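Enzyme assay of tryptophanyl-tRNA synthetase; the read-out is not stated. Target: Tryptophan-tRNA ligase, Mycobacterium tuberculosis (UniProt P9WFT3). Concentration: 10 µM. Direction is not recorded; retested compounds ran higher, which suggests that high means inhibition. About 65,000 compounds were tested under these conditions; 0.098% (about 64) showed 50% or more at least once.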
Leishmania in macrophages: 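Cell assay of Leishmania donovani living inside macrophages; the read-out is not stated. Compounds at 30 µM. The record gives no direction; compounds that gave an IC50 in retests scored well above the rest, so higher reads as stronger inhibition. Of about 69,000 compounds tested this way, about 1,000 (1.5%) reached 50% or more in at least one test.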

Chains of the proteins cited; added tags and fusions are not shown.
UniProt P9WFT3, whole entry: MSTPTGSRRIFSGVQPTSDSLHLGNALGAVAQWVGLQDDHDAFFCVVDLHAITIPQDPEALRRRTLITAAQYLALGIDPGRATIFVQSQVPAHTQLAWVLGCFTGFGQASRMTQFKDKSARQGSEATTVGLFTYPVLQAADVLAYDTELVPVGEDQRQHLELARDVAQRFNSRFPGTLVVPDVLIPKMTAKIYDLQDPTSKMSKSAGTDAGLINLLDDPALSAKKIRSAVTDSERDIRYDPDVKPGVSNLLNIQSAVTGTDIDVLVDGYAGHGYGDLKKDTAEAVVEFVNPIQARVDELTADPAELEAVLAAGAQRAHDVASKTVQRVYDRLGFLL

Values are the deposited “Percent Effect”, in %. How 0% and 100% were set is not recorded. Most values in the screen are low, and negative values occur. Compounds were drawn at random from those tested, without regard to their results. Two or more numbers in one place are separate tests of the same structure; such repeats can differ widely.

{"compound": "COc1cccc2c1OCC(NC(=O)NCCc1ccccn1)C2", "stereo": "centres unmarked", "MtTrpRS": -0.5089, "Leishmania in macrophages": 14.49}
{"compound": "Cc1nc(C)n(CCNC2CCN(c3ncnc4c(C)csc34)CC2)n1", "MtTrpRS": 0.6522, "Leishmania in macrophages": -18.48}
{"compound": "CCc1cc(=O)n(CC(=O)NCC2CCCO2)c(-c2cccc(F)c2)n1", "stereo": "centres unmarked", "MtTrpRS": 1.147, "Leishmania in macrophages": 41.3}
{"compound": "Clc1ccc(CNc2cnn(CCN3CCOCC3)c2)cc1Cl", "MtTrpRS": -2.97, "Leishmania in macrophages": 3.467}
{"compound": "O=C(c1cnoc1)N1CCC[C@]2(C[C@@H](Oc3ccccn3)CO2)C1", "MtTrpRS": -3.604}
{"compound": "CN(C)c1nccc(NCc2cc(-c3ccco3)n[nH]2)n1", "Leishmania in macrophages": "24.06 and -1.098"}
{"compound": "Cc1ccc2c(c1)C1(CCNCC1)CC2NC1CC1.Cl.Cl", "stereo": "centres unmarked", "Leishmania in macrophages": 31.97}
{"compound": "CCC1=N[C@@]2(CC[C@@H]3CN(S(=O)(=O)CC)C[C@@H]32)C(=O)N1CC(C)C", "MtTrpRS": -8.269}
{"compound": "c1cnc(N2CCOC3(COCCN(Cc4cc[nH]n4)C3)C2)nc1", "stereo": "centres unmarked", "MtTrpRS": -4.443}
{"compound": "O=C(NCC(=O)N1CCc2ccccc2C1)c1ccoc1", "MtTrpRS": -3.595, "Leishmania in macrophages": -10.75}
{"compound": "CCOCc1cnc2n1CCN(C(=O)c1cn(C)c3ccccc13)C2C", "stereo": "centres unmarked", "Leishmania in macrophages": 27.75}
{"compound": "Cl.Cl.Cl.c1cncc(CNc2ccc3nc(C4CCNCC4)nn3c2)c1", "Leishmania in macrophages": -10.25}
{"compound": "CC(C)(CNc1cccc(Cl)c1)NC(=O)C1CCCN(CC(N)=O)C1", "stereo": "centres unmarked", "MtTrpRS": 3.778, "Leishmania in macrophages": 20.98}
{"compound": "Cc1noc(C)c1CCC(=O)NC(C)c1nnc2n1CCC2", "stereo": "centres unmarked", "MtTrpRS": 1.341, "Leishmania in macrophages": -10.17}
{"compound": "Cc1ccc(NC2CCN(C(=O)CCCc3ccccn3)CC2)nn1", "MtTrpRS": 7.047, "Leishmania in macrophages": 10.19}
{"compound": "CCC(=O)N1CCC2(CC1)CN(C(C)=O)c1ccc(C)cc12", "MtTrpRS": -4.869, "Leishmania in macrophages": 1.613}
{"compound": "COc1cc(-n2cccc2)c(Cl)cc1C(N)=O", "MtTrpRS": -2.824, "Leishmania in macrophages": -3.605}
{"compound": "Cc1cc(C(=O)N2CCN(c3nc4c(C(C)C)cccc4s3)CC2)no1", "MtTrpRS": 3.858, "Leishmania in macrophages": -23.29}
{"compound": "CS(=O)(=O)N1CCCC12CCCN(S(=O)(=O)c1cc(F)cc(F)c1)C2", "stereo": "centres unmarked", "MtTrpRS": -2.682, "Leishmania in macrophages": -1.873}
{"compound": "FC(F)(F)Oc1cccc(CNC[C@H]2Cn3ccnc3CO2)c1", "MtTrpRS": 0.9863, "Leishmania in macrophages": -41.37}
{"compound": "Cc1nc(C(C)NC(=O)c2cn(Cc3ccc(Cl)cc3)nn2)n[nH]1", "stereo": "centres unmarked", "MtTrpRS": 0, "Leishmania in macrophages": 12.33}
{"compound": "Cn1cnc(S(=O)(=O)N2CCCc3c(F)cc(F)cc32)c1Cl", "MtTrpRS": -1.81, "Leishmania in macrophages": 24.39}
{"compound": "O=C(O)C(F)(F)F.O=S(=O)(C1CC1)N1CCC[C@]2(C[C@@H](Oc3ccccn3)CO2)C1", "Leishmania in macrophages": -11.56}
{"compound": "Cc1nnc(CN(Cc2ccc(Cl)c(Cl)c2)C(C)C)o1", "MtTrpRS": -1.503, "Leishmania in macrophages": 30.77}
{"compound": "CN(C)c1cccc(C2CCCN2CCCN2CCOC2=O)c1", "stereo": "centres unmarked", "MtTrpRS": 3.958, "Leishmania in macrophages": 25.06}
{"compound": "CCS(=O)(=O)N1CCC(NC(=O)c2ccccc2O)CC1", "MtTrpRS": -6.818, "Leishmania in macrophages": 20.67}
{"compound": "COc1ccc(Cc2ncc3c(n2)CN(C(=O)C(C)(C)OC)C3)cc1", "MtTrpRS": -5.332, "Leishmania in macrophages": 29.44}
{"compound": "CCc1nc(CN2CCCN(C(=O)C(CC)OC)CC2)cs1", "stereo": "centres unmarked", "MtTrpRS": 23.1, "Leishmania in macrophages": -42.75}

The last 2 entries again:

For COc1ccc(Cc2ncc3c(n2)CN(C(=O)C(C)(C)OC)C3)cc1 the result was MtTrpRS: -5.332%; Leishmania in macrophages: 29.44%.
For CCc1nc(CN2CCCN(C(=O)C(CC)OC)CC2)cs1 (centres unmarked) the result was MtTrpRS: 23.1%; Leishmania in macrophages: -42.75%.

Data taken from ChEMBL document CHEMBL3988442, “University of Dundee, Small-Polar-MMV Screening Library” (2021).